The other results are listed elsewhere or left out. Shown are side measurements of this screen, not its main read-out; they come without a call. Most of these compounds were active or inconclusive in the main read-out, so they are no random draw. The note in brackets gives the kind of curve behind each potency; many fits are weak.
Assay: Cell signaling CRE-BLA (Fsk stim)
Details: CHO CRE-bla reporter (cAMP response element driving beta-lactamase), forskolin EC10, beta-lactamase ratio; measured here: 460 nm blue channel
Summary of the method: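 Modulation of forskolin signalling: compounds in titration series added with EC10 NKH 477 to CHO cells carrying a CRE-driven beta-lactamase reporter, 3 h, 37C. CCF4 FRET ratio (460/530 nm, ex 405 nm) gives %activity and AC50.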

Row | Compound | AC50
1 | Cc1ccccc1-c1nnc(SCC(=O)Nc2ccc(Cl)cc2)n1N | 1.26 µM [falling, full curve]
2 | Cc1ccc(-c2csc3ncnc(Sc4nnc(CN5CCCCCC5=O)o4)c23)cc1 | 0.398 µM [falling, full curve]
3 | COc1cccc(Cn2c(=O)c(-c3cc(F)cc(F)c3)nc3cnc(OC)nc32)c1 | 2 µM [rising, full curve, poor fit]
4 | O=c1c(-c2ccc(F)cc2)nc2cnc(Nc3ccccc3)nc2n1Cc1cccs1 | 1.26 µM [rising, full curve]
5 | CN1CCN(C2=C(Cl)C(=O)N(c3ccc(Cl)cc3)C2=O)CC1 | 25.1 µM [falling, single point]
6 | Cc1cccc(CNc2ncnc3ccc(-c4c(C)noc4C)cc23)c1 | 10 µM [rising, partial curve]
7 | CSc1nc(C)cc(-n2ccc(=O)[nH]c2=O)n1 | 3.16 µM [rising, single point]
8 | COc1ccc2nc(NC(=O)CN(c3ccc(C)cc3)S(=O)(=O)c3c(C)nn(C)c3C)sc2c1 | 1.58 µM [rising, full curve]
9 | O=C(CN1CCNCC1)Nc1ccccc1Cl | 0.631 µM [falling, full curve, poor fit]
10 | CCNC(=O)NC(=O)C(C)Oc1ccc(C(=O)OC)cc1 (stereo not drawn) | 5.01 µM [rising, single point]
11 | O=c1cc(CO)oc(CN2CCN(c3ccccc3)CC2)c1O | 0.794 µM [falling, full curve]
12 | COc1cccc(C(=O)Nc2c(C(N)=O)oc3ccccc23)c1 | 3.16 µM [rising, full curve]
13 | O=C(Nc1nc2ccccc2[nH]1)C1CC(=O)N(c2ccc3c(c2)OCCO3)C1 (stereo not drawn) | 7.94 µM [falling, partial curve]
14 | c1cncc(-c2ccc3ncnc(NCCN4CCOCC4)c3c2)c1 | 12.6 µM [rising, single point]
15 | COc1cccc(NC(=O)CCSc2nnc3scc(-c4ccccc4)n23)c1 | 1.26 µM [rising, partial curve]
16 | Cc1cc(N(C)C)c(C#N)c(NCc2ccccc2)n1 | 15.8 µM [rising, single point]
17 | O=[N+]([O-])c1cc(Cl)c(Cl)c(Cl)c1Cl | 31.6 µM [falling, single point]
18 | O=C(O)c1ccccc1Nc1cccc(OCc2ccc3ccccc3n2)c1 | 2.51 µM [rising, partial curve]
19 | Cn1c(C(=O)NC2CC2)cc2c(=O)n(C)c3ccccc3c21 | 3.16 µM [rising, full curve]
20 | O=C(Oc1ccc(-c2nnco2)cc1)N(c1ccccc1)c1ccccc1 | 25.1 µM [rising, single point]
21 | CCOC(=O)C1=C(C)NC(=O)NC1/C=C/c1ccccc1 (stereo not drawn) | 25.1 µM [rising, single point]
22 | CCOC(=O)N1CCC(Nc2nc3ccccc3n3cnnc23)CC1 | 10 µM [rising, partial curve]
23 | Cc1ccc(NCc2nnc(SCC(=O)NCc3ccco3)n2CC2CCCO2)cc1Cl (stereo not drawn) | 2.51 µM [rising, single point]

Row | Compound | AC50
24 | Cc1ccc(-c2c3c(=O)n(C)c(=O)n(C)c3cn2-n2cnnc2)cc1 | 0.0794 µM [falling, full curve]
25 | CCC(C)[C@H](NC(=O)NCc1ccco1)C(=O)O (stereo partly drawn) | 3.16 µM [rising, single point]
26 | COc1ccc(Cn2c(CCC(=O)O)nc3cccnc32)cc1 | 0.316 µM [falling, full curve, poor fit]
27 | CCCCNC(=O)c1cc(-c2ccc(F)cc2)on1 | 0.501 µM [falling, partial curve]
28 | CN1CCN(S(=O)C23CC4CC(CC(C4)C2)C3)CC1 (stereo not drawn) | 15.8 µM [rising, partial curve]
29 | COC(=O)c1cn(-c2ccccc2)nc1-c1cccnc1 | 12.6 µM [rising, partial curve]
30 | CCC(=O)N1c2ccc(S(=O)(=O)CCC(=O)NCCC3=CCCCC3)cc2CC1C (stereo not drawn) | 0.158 µM [falling, partial curve, poor fit]
31 | COc1ccc(N2CCN(C(=O)C3CCC(Cn4c(=S)[nH]c5ccccc5c4=O)CC3)CC2)cc1 (stereo not drawn) | 25.1 µM [falling, single point]
32 | CC(C)(C)OC(=O)c1c(N)n(CCCN2CCCC2=O)c2nc3ccccc3nc12 | 12.6 µM [rising, partial curve]
33 | CN(C)Cc1nc2ccccc2c(=O)n1Cc1nc(-c2cc3ccccc3o2)cs1 | 0.316 µM [falling, partial curve, poor fit]
34 | CCCCn1c2nc3ccccc3nc2c2c(=N)oc(C)nc21 | 10 µM [rising, partial curve]
35 | COc1ncc2nc(-c3ccccc3)c(=O)n(-c3ccccc3)c2n1 | 12.6 µM [rising, single point]
36 | CCCn1nc(-c2ccccc2)c2nc3ccccc3nc21 | 3.98 µM [rising, full curve]
37 | CCn1c(SCc2ccc(C(=O)OC)o2)nc2sc3c(c2c1=O)CCCC3 | 10 µM [rising, partial curve]
38 | Cc1ccc(NC(=O)CC2Nc3ccccc3NC2=O)cc1Cl (stereo not drawn) | 10 µM [rising, partial curve]
39 | CCCCOc1ccccc1NC(=O)c1ccco1 | 10 µM [rising, partial curve]
40 | COc1ccc(C(=O)n2c(-c3ccco3)nc3ccccc32)cc1 | 5.01 µM [falling, single point]
41 | COc1ccccc1CNc1ccnc(-c2ccc(N(C)C)cc2)n1 | 25.1 µM [rising, single point]
42 | O=C(NCc1ccco1)c1cc(-c2ccncc2)nc2ccccc12 | 5.01 µM [falling, single point]
43 | Cc1ccc(Nc2cc(-n3nc(C)cc3C)ncn2)cc1 | 0.398 µM [falling, full curve]
44 | Cc1noc(C)c1CSc1nnc2scc(-c3ccccc3)n12 | 1.58 µM [rising, full curve]
45 | Cc1ccc(-n2ncc3c(=O)[nH]c(SCC(=O)N4CCCCC4)nc32)cc1 | 10 µM [rising, partial curve]
46 | COc1ccc(CC(NC(C)=O)C(=O)NC2CCN(c3nnnn3-c3ccccc3)CC2)cc1 (stereo not drawn) | 0.1 µM [falling, full curve]

Structures above that have a furan ring, fused or not, in the order listed:
Row | Compound | AC50
12 | COc1cccc(C(=O)Nc2c(C(N)=O)oc3ccccc23)c1 | 3.16 µM [rising, full curve]
23 | Cc1ccc(NCc2nnc(SCC(=O)NCc3ccco3)n2CC2CCCO2)cc1Cl (stereo not drawn) | 2.51 µM [rising, single point]
25 | CCC(C)[C@H](NC(=O)NCc1ccco1)C(=O)O (stereo partly drawn) | 3.16 µM [rising, single point]
33 | CN(C)Cc1nc2ccccc2c(=O)n1Cc1nc(-c2cc3ccccc3o2)cs1 | 0.316 µM [falling, partial curve, poor fit]
37 | CCn1c(SCc2ccc(C(=O)OC)o2)nc2sc3c(c2c1=O)CCCC3 | 10 µM [rising, partial curve]
39 | CCCCOc1ccccc1NC(=O)c1ccco1 | 10 µM [rising, partial curve]
40 | COc1ccc(C(=O)n2c(-c3ccco3)nc3ccccc32)cc1 | 5.01 µM [falling, single point]
42 | O=C(NCc1ccco1)c1cc(-c2ccncc2)nc2ccccc12 | 5.01 µM [falling, single point]

(list continues)

Row | Compound | AC50
47 | FC(F)(F)c1ccc(N2CCOCC2)c(NC2=NCCCCC2)c1 | 7.94 µM [falling, partial curve]
48 | COc1ccc(NC(=O)c2[nH]c(C)c(C(C)=O)c2C)cc1Cl | 0.0251 µM [falling, full curve, poor fit]
49 | Cn1cc(S(=O)(=O)N2CCN(c3cccc(C(F)(F)F)c3)CC2)c(=O)n(C)c1=O | 12.6 µM [rising, partial curve]
50 | CCCN(CCC)C(=O)CSc1nc2n[nH]c(C)c2c(=N)n1-c1ccc(OCC)cc1 | 0.398 µM [rising, full curve]
51 | CCNc1ncc2nc(-c3cn(C)c4ccccc34)c(=O)n(Cc3cccs3)c2n1 | 12.6 µM [rising, partial curve]
52 | CCOC(=O)c1[nH]c(C)c(/C(O)=C2\C(=O)C(=O)N(CCCN3CCOCC3)C2c2cccnc2)c1C (stereo not drawn) | 20 µM [falling, partial curve, poor fit]
53 | O=C(C1CCCN1S(=O)(=O)c1ccc(Cl)c(Cl)c1)N1CCCCC1 (stereo not drawn) | 0.00631 µM [falling, full curve]
54 | CCCOc1ccc(OC(=O)c2ccc(Br)o2)cc1 | 0.0126 µM [falling, full curve]
55 | CCOC(=O)CSc1nnc(CNC(=O)Cc2ccccc2)n1C | 10 µM [rising, partial curve]
56 | c1ccc(Nc2nc3ccccc3n3cnnc23)cc1 | 10 µM [rising, single point]
57 | COc1ccccc1NC(=O)Nn1cnnc1 | 5.01 µM [falling, full curve, poor fit]
58 | CCc1ccc(NC(=O)CSc2nnc(-c3cnccn3)n2Cc2ccco2)cc1 | 12.6 µM [falling, partial curve]
59 | COC(=O)c1cccc(NC(=O)NC2CCCN2S(=O)(=O)c2ccc(Cl)cc2)c1 (stereo not drawn) | 0.01 µM [falling, full curve]
60 | Cc1cccc(S(=O)(=O)C(C#N)c2nc3ccccc3nc2N2CC(C)OC(C)C2)c1 (stereo not drawn) | 10 µM [rising, partial curve]
61 | Cc1ccc(S(=O)(=O)N2CCCN(S(=O)(=O)c3ccc(C)cc3)CC2)cc1 | 7.94 µM [rising, partial curve]
62 | CCCCCCC(=O)N(O)C1CC(=O)N(c2ccccc2)C1=O (stereo not drawn) | 3.16 µM [falling, partial curve, poor fit]
63 | CCOc1ccc(C2C(C(=O)c3ccco3)=C(O)C(=O)N2Cc2cccnc2)cc1OC (stereo not drawn) | 20 µM [falling, single point]
64 | COc1cccc(Cn2c(=O)c(-c3cn(C)c4ccccc34)nc3cnc(N4CCNCC4)nc32)c1 | 5.01 µM [rising, partial curve]
65 | COc1ccc(NC(=O)[C@@H]2[C@@H]3C(=O)N(C4CCCCC4)C(=O)[C@@H]3C3c4ccccc4C=CN32)cc1 (stereo partly drawn) | 1.26 µM [falling, full curve]
66 | Cc1cc2c(nn1)CCc1nonc1-2 | 3.16 µM [rising, full curve]
67 | Cn1nc(C(=O)Nc2c(-c3ccccc3)nc3sccn23)c2ccccc2c1=O | 3.16 µM [rising, full curve]
68 | C=CCn1c2ccccc2c2nnc(SCCCn3c(=O)[nH]c4ccccc43)nc21 | 1.58 µM [rising, partial curve]

Reprinted: entries 50–51
Row | Compound | AC50
50 | CCCN(CCC)C(=O)CSc1nc2n[nH]c(C)c2c(=N)n1-c1ccc(OCC)cc1 | 0.398 µM [rising, full curve]
51 | CCNc1ncc2nc(-c3cn(C)c4ccccc34)c(=O)n(Cc3cccs3)c2n1 | 12.6 µM [rising, partial curve]
